Structures were worked out from names or drawings and are uncertain.
Target: Human MrgprX2 (Homo sapiens, UniProt Q96LB1)
Experiment: Human MrgprX2 antagonist FLIPR intracellular calcium mobilization assay
Details: antagonist activity, recombinant hMrgpMRGPRX2 expressing cells
Source text: Potent and selective hMrgpMRGPRX2 compounds have been generated from compounds identified during a high throughput screening (HTS) campaign and followed up with cycles of structure activity based medicinal chemistry efforts. These compounds were characterized in recombinant hMrgpMRGPRX2 expressing cells for their antagonist activity and the potency was confirmed in the human mast cell line LAD-2, where the target is endogenously expressed. The assays used to determine potencies are functional read-out looking at intracellular calcium mobilization using the FLIPR™ technology. In these FLIPR assays, we test the identified compounds using recombinant cellular systems expressing mouse MrgprB2, mouse MrgprA1, gerbil MrgpMRGPRX2 orthologue, Chinese hamster MrgpMRGPRX2 orthologue and cynomolgus monkey MrgpMRGPRX2 orthologue, respectively for orthologue activity.

Chains of the proteins cited; added tags and fusions are not shown.
UniProt Q96LB1, whole entry: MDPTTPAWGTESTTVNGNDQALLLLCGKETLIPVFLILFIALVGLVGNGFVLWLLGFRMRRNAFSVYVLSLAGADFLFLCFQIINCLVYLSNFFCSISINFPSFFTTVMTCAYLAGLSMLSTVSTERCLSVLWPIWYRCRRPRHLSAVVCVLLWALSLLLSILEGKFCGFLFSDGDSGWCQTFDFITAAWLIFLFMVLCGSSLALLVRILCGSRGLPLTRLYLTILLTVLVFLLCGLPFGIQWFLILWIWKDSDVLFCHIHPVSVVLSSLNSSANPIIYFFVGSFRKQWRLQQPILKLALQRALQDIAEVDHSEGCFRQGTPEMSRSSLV

## CC1(C(=O)Nc2ncc(Cc3cccc(F)c3)s2)CCS(=O)(=O)CC1
  Human MrgprX2 Antagonist pIC50: 5.4

From US12502380B2, “MrgprX2 antagonists for the treatment of inflammatory disorders” (Dermira, Inc., priority 2019, dated 2025)
